Data published in article PMC3681753.
No constants are given. Whether binding was seen depends on the method and setting. In cells and extracts the contact can be indirect. Some binding calls cover weakened binding; strength is not graded here. For some assays here: Where a sequence is shown, tags or fusion partners need not be part of it.

Columns and labels:
[1] = biological target: FLAG-p65 (NF-κB RELA/p65 subunit) (human), Q04206; assay: co-IP; HEK 293T transfected 48 h with FLAG-tagged bait; extracts made after 16 h of IFN-α, GSK3 inhibitor BIO (5 µM) or SeV infection; immunoprecipitation against FLAG; blot with anti-FLAG and anti-CTNNB1 (endogenous CTNNB1); conditions: remark: other sources report otherwise
[2] = biological target: FLAG-p65 (NF-κB RELA/p65 subunit) (human), Q04206; assay: co-IP; HEK 293T co-transfected 48 h with CTNNB1 and FLAG-tagged bait; extracts made after 16 h of SeV infection; immunoprecipitation against FLAG; blot with anti-FLAG and anti-CTNNB1; conditions: remark: other sources report otherwise

B1: endogenous CTNNB1 (β-catenin), P35222 1-781 (protein)
chain: MATQADLMELDMAMEPDRKAAVSHWQQQSYLDSGIHSGATTTAPSLSGKGNPEEEDVDTSQVLYEWEQGFSQSFTQEQVADIDGQYAMTRAQRVRAAMFPETLDEGMQIPSTQFDAAHPTNVQRLAEPSQMLKHAVVNLINYQDDAELATRAIPELTKLLNDEDQVVVNKAAVMVHQLSKKEASRHAIMRSPQMVSAIVRTMQNTNDVETARCTAGTLHNLSHHREGLLAIFKSGGIPALVKMLGSPVDSVLFYAITTLHNLLLHQEGAKMAVRLAGGLQKMVALLNKTNVKFLAITTDCLQILAYGNQESKLIILASGGPQALVNIMRTYTYEKLLWTTSRVLKVLSVCSSNKPAIVEAGGMQALGLHLTDPSQRLVQNCLWTLRNLSDAATKQEGMEGLLGTLVQLLGSDDINVVTCAAGILSNLTCNNYKNKMMVCQVGGIEALVRTVLRAGDREDITEPAICALRHLTSRHQEAEMAQNAVRLHYGLPVVVKLLHPPSHWPLIKATVGLIRNLALCPANHAPLREQGAIPRLVQLLVRAHQDTQRRTSMGGTQQQFVEGVRMEEIVEGCTGALHILARDVHNRIVIRGLNTIPLFVQLLYSPIENIQRVAAGVLCELAQDKEAAEAIEAEGATAPLTELLHSRNEGVATYAAAVLFRMSEDKPQDYKKRLSVELTSSLFRTEPMAWNETADLGLDIGAQGEPLGYRQDDPSYRSFHSGGYGQDALGMDPMMEHEMGGHHPGADYPVDGLPDLGHAQDLMDGLPPGDSNQLAWFDTDL
binding [1]: binds

B2: exogenous CTNNB1 (β-catenin), untagged, P35222 1-781 (protein)
chain: B1 chain
binding [2]: binds
